Screen size: about 320,000 compounds; about 2,100 (0.66%) were called active. Inconclusive means that the source gave no clear call. Such entries were picked first, then a sample of the others. The call rests on the fitted dose curve; in most records, active means well fitted inhibition curve with a large enough effect in the signal ratio, with a control signal flat (not every such curve was filed as active); inconclusive means small, poorly fitted or top-dose-only effect, or effect the other way, or a change in a side signal; inactive means flat fitted curve, though single readings scatter; the % refers to the signal ratio. Potencies beside an inconclusive call are fits to weak or partial responses and may not hold up.
Assay: qHTS Assay for Lipid Storage Modulators in Drosophila S3 Cells
Conditions: BODIPY lipid droplet fluorescence, 18-24 h, cells fed with added oleic acid; lipid storage change, negative = inhibition: at 46.1 µM (top of the series) unless noted
In short: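 Laser-scanning cytometry quantifies lipid droplet accumulation (500–530 nm total intensity; droplet/cell object ratio) in oleic acid-fed (400 uM added) Drosophila S3 cells treated with a concentration series. 20 uM Triacsin C defined 100% inhibition.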
On the % scale 0 is the no-effect control and ±100 the full control effect; potency means the concentration at half of the fitted maximal effect.

Row | Compound | Potency | lipid storage change, negative = inhibition
1 | Cc1ccc(-n2c(Cc3cccs3)nnc2SCC(N)=O)cc1 | inconclusive: 0.461 µM [falling, single point] | –
2 | O=C1C(=O)c2ccccc2C(O)=C1C1CCC(c2ccc(Cl)cc2)CC1 (configuration not stated) | active: 4.11 µM | –
3 | COc1ccc(S(=O)(=O)NC(C)C(=O)N2CCCC2)cc1Cl (configuration not stated) | – | inconclusive: 24.8%
4 | CCOc1ccc(N(CC(=O)Nc2cccc(Br)c2)S(C)(=O)=O)cc1 | – | inconclusive: 57.6%
5 | Cc1ccc(N(C)S(=O)(=O)c2ccc3[nH]cc(C(=O)NCCCN4CCOCC4)c(=O)c3c2)cc1C | inconclusive: 29.1 µM [falling, single point] | –
6 | Cc1cccc(OCC(=O)Nc2ccc(S(=O)(=O)Nc3cc(C)nc(C)n3)cc2)c1 | – | inactive: 1.01%
7 | O=C(NCc1ccc2c(c1)OCO2)c1ccc(COc2cccc(Cl)c2)o1 | – | inconclusive: -0.0049%
8 | C=CCn1c(O)c(C(CC)=Nc2ccccc2NC(=O)CC)c(=O)[nH]c1=O | – | inconclusive: -0.578%
9 | CCCCn1c(N)c(-c2nc3ccccc3o2)c2c([N+](=O)[O-])nn(C)c(=O)c21 | inconclusive: 29.1 µM [falling, single point] | –
10 | O=C1[C@@H]2C(c3cccnc3)=NO[C@@H]2C(=O)N1c1ccc2ccccc2c1 | – | inconclusive: -7.85%
11 | CCOc1ccccc1-c1nc(C(N)=O)c2[nH]c(=O)n(-c3ccc(F)cc3)c2n1 | – | inconclusive: -14.8%
12 | CCCC(=O)C1CCN(Cc2ccccc2)CC1 | inconclusive: 2.59 µM [falling, partial curve] | –
13 | Cc1ccc(S(=O)(=O)N2CCOCC2)cc1NC(=O)COC(=O)C1COc2ccccc2O1 (configuration not stated) | – | inconclusive: 39.5%
14 | O=c1c2ccccc2nc(SCc2cc(F)cc3c2OCOC3)n1Cc1ccco1 | – | inconclusive: 69.3%
15 | Cn1cc(C2CC(c3ccccc3)=NN2C(=O)c2ccccc2)c2ccccc21 (configuration not stated) | – | inconclusive: -32.4%
16 | Cc1ccc(NC(=O)CCOc2ccccc2)c(C)c1 | – | inconclusive: 19.8%
17 | CCOc1ccccc1OCCCC(=O)N(CC)CC(=O)Nc1c(F)cccc1F | – | inconclusive: -25.2%
18 | CC1CN(/C=C/C(=O)C(F)(F)F)CC(C)O1 (configuration not stated) | – | inconclusive: 18.2%
19 | O=C(NCc1ccc(Cl)cc1)c1cccc(NC(=O)c2ccccc2)c1 | inconclusive: 1.64 µM [activator, full curve] | –
20 | CC(=O)Nc1ccccc1OCC(=O)c1ccc2c(c1)OCO2 | – | inconclusive: 26.5%
21 | CC(=O)c1cccc(NC(=O)NC(C)c2ccc3c(c2)OCO3)c1 (configuration not stated) | – | inconclusive: -16.2%
22 | CN1CCN(c2nc(N3CCN(CCO)CC3)nc3ccccc23)CC1 | – | inconclusive: 4.26%

Sorted by length of the SMILES (smallest number first): 5 of the compounds above.
Row | Compound | Potency | lipid storage change, negative = inhibition
12 | CCCC(=O)C1CCN(Cc2ccccc2)CC1 | inconclusive: 2.59 µM [falling, partial curve] | –
3 | COc1ccc(S(=O)(=O)NC(C)C(=O)N2CCCC2)cc1Cl (configuration not stated) | – | inconclusive: 24.8%
19 | O=C(NCc1ccc(Cl)cc1)c1cccc(NC(=O)c2ccccc2)c1 | inconclusive: 1.64 µM [activator, full curve] | –
14 | O=c1c2ccccc2nc(SCc2cc(F)cc3c2OCOC3)n1Cc1ccco1 | – | inconclusive: 69.3%
8 | C=CCn1c(O)c(C(CC)=Nc2ccccc2NC(=O)CC)c(=O)[nH]c1=O | – | inconclusive: -0.578%

— PubChem BioAssay AID2685 (National Center for Advancing Translational Sciences (NCATS), 2010)
